Values are relative to the signal before dosing, not to a vehicle control; the signal also falls without drug.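 Fibroblast labels denote human fibroblasts, mainly primary ones from uterus (C12385, HUF), lung (H6013), bone (Hs27A), adrenal (HADF) and skin (WS1), plus mammary HMF and breast cancer-associated Hs343T. Cancer cells are basal-like or mesenchymal-like triple-negative breast cancer lines. A hit is a response shift exceeding 3x replicate standard deviation. The tissue of the other fibroblasts is not given here.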
System: MDAMB468
Test: relative JC-1 red fluorescence (viability) vs pre-drug, coculture with fibroblast (fraction); higher = more viable cancer cells
Conditions: 100 µM
Procedure: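 JC-1 labelled TNBC cells cocultured 1:1 (1,500 cells each) with CellTrace Violet stained primary or stromal fibroblasts in 384-well plates in FluoroBrite medium, treated with one of 42 anticancer drugs at 0.1, 1, 10 or 100 uM. JC-1 red fluorescence (mitochondrial integrity in cancer cells only) was read by plate reader every 8 h for 72 h. Values are normalised to each well's pre-drug value. The stock of one drug was tenfold lower, so its dose labels may be too high.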

CS(=O)(=O)CCNCc1ccc(-c2ccc3ncnc(Nc4ccc(OCc5cccc(F)c5)c(Cl)c4)c3c2)o1 [Lapatinib]
relative JC-1 red fluorescence
Conditions | 8 h | 16 h | 24 h | 32 h | 40 h | 48 h | 56 h | 64 h | 72 h
coculture fibroblast: C12385 | 0.928 | 0.86211 | 0.872 | 0.81209 | 0.7789 | 0.751 | 0.709 | 0.666 | 0.649
coculture fibroblast: H6013 | 0.969 | 0.864 | 0.9699 | 0.9662 | 0.9262 | 0.917 | 0.844 | 0.805 | 0.736
coculture fibroblast: H6019 | 0.85 | 0.857 | 0.823 | 0.759 | 0.721 | 0.7 | 0.662 | 0.628 | 0.596
coculture fibroblast: H6076 | 0.908 | 0.888 | 0.782 | 0.803 | 0.856 | 0.823 | 0.778 | 0.744 | 0.762
coculture fibroblast: H6231 | 0.878 | 0.943 | 0.934 | 0.928 | 0.871 | 0.864 | 0.816 | 0.813 | 0.80314
coculture fibroblast: HADF | 0.93 | 0.924 | 0.872 | 0.8681 | 0.824 | 0.8 | 0.7486 | 0.716 | 0.67
coculture fibroblast: HCFa | 0.907 | 0.925 | 0.89 | 0.895 | 0.847 | 0.839 | 0.809 | 0.786 | 0.746
coculture fibroblast: HCPF | 0.892 | 0.975 | 0.897 | 0.88 | 0.8 | 0.771 | 0.736 | 0.726 | 0.711
coculture fibroblast: HHSteC | 0.938 | 0.948 | 0.936 | 0.926 | 0.907 | 0.925 | 0.864 | 0.846 | 0.808
coculture fibroblast: HMF | 0.9 | 0.911 | 0.98 | 0.932 | 0.862 | 0.852 | 0.808 | 0.788 | 0.764
coculture fibroblast: HPFa | 0.865 | 0.932 | 0.892 | 0.854 | 0.825 | 0.823 | 0.753 | 0.73 | 0.655
coculture fibroblast: HUF | 0.943 | 0.873 | 0.84 | 0.786 | 0.755 | 0.731 | 0.696 | 0.683 | 0.667
coculture fibroblast: Hs5 | 0.915 | 0.884 | 0.9975 | 0.97494 | 0.8985 | 0.885 | 0.8703 | 0.865 | 0.9013
coculture fibroblast: Hs27A | 0.8907 | 0.898 | 0.853 | 0.8741 | 0.813 | 0.796 | 0.747 | 0.719 | 0.694
coculture fibroblast: Hs343T | 0.83 | 0.843 | 0.855 | 0.834 | 0.768 | 0.75 | 0.709 | 0.693 | 0.668
coculture fibroblast: WS1 | 0.886 | 0.851 | 0.748 | 0.794 | 0.748 | 0.777 | 0.759 | 0.649 | 0.621
